Test results reported in paper PMC3848888.
Results are given in words; binding and its absence hold for the method and conditions named. In cells and extracts the contact can be indirect. Some results given as binding are weak or reduced against the parent protein; the word gives no strength. Sequences can lack the tags named with a protein.

Protein sequences, listed by entry. Tags and fused reporters are not part of them.
UniProt P04618: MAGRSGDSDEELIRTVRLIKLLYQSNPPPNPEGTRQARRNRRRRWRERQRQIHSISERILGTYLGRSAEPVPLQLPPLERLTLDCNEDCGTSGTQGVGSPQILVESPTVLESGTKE

Assays:
His TRBP [1] = target: T1, His TRBP (UniProt Q15633); assay: co-IP; HEK 293T co-transfected with His TRBP or His PACT and Myc Tat, Myc Rev or their ARM deletion mutants, with and without 30 uM Adox; lysates on Ni-NTA beads, 4°C, 2 hours; blots with anti-His and anti-myc
T1 sequence: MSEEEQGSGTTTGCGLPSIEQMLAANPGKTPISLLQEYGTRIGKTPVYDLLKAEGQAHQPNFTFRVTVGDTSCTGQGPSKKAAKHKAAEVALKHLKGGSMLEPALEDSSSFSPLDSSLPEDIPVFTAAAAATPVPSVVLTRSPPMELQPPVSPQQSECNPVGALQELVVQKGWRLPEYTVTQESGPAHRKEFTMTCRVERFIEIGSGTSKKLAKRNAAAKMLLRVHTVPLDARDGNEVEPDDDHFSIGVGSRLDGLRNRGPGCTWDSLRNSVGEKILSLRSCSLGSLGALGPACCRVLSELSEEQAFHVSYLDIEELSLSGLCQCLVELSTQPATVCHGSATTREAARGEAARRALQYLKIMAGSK

His PACT [2] = target: T2, His PACT (UniProt O75569); assay: as above
T2 sequence: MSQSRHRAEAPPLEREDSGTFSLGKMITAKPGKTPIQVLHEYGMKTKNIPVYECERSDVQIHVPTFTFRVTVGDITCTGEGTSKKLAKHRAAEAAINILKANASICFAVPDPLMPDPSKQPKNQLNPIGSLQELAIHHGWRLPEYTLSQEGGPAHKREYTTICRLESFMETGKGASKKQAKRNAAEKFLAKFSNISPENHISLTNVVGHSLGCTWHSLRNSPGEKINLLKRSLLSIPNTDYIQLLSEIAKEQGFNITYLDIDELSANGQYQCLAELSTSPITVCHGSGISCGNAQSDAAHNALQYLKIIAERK

His TRBP [3] = target: T1, His TRBP; assay: co-IP; His TRBP or His PACT with Myc Rev or RmGST; cell extracts treated with 50 ug/ml RNase A prior to co-immunoprecipitation (presence and absence compared)
His PACT [4] = target: T2, His PACT; assay: as above

Myc Rev (HIV-1 Rev, wild type) (from UniProt P04618 1-116)
binding (His TRBP [1]): binds
binding (His PACT [2]): binds
binding (His TRBP [3]): binds
binding (His PACT [4]): binds

Myc Tat (HIV-1 Tat, wild type) (from UniProt P04608 1-86)
binding (His TRBP [1]): binds
binding (His PACT [2]): binds

Myc ∆Tat (ARM deletion mutant of HIV-1 Tat, 48-60 deleted) (from UniProt P04608 1-86)
binding (His TRBP [1]): binds
binding (His PACT [2]): binds
